Experimental data: PubChem BioAssay AID504804 (Drosophila RNAi Screening Center, 2011)
The screen tested about 19,000 reagents; this is an unselected part of those that have a named target and a result. Of all reagents, 47 (0.25%) were called active. 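Signals are raw, not normalised; exact z-scores behind calls not deposited; actives needed confirmation, so some wells reaching 2 SD are inactive.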 Reagents against one gene are numbered here. A plus sign joins genes that one reagent is predicted to hit.

Purpose: 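Knock-downs shielding fly cells from apoptosis caused by DNA damage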 (primary screen)
Cell system: Drosophila Kc cells
Reagents: long dsRNA against Drosophila genes, 0.5 µg dsRNA per well
Timing: 96 h (48 h knock-down, then 48 h drug)
Treatment: doxorubicin 5 µg/ml for 48 h, added 48 h after dsRNA
Measurement: 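Viability measured as cellular ATP by luminescence after 48 h knock-down then 48 h doxorubicin at 5 µg/ml; unnormalised plate counts for each replicate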
Scale: raw ATP luminescence: higher = more viable cells, protection from doxorubicin
Rule for the call: 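z-score of 2 or more over plate mean in both duplicates, retained only when retests and separate dsRNAs confirm the protection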

CG2256 scored raw ATP luminescence, replicate 1 = 47590; raw ATP luminescence, replicate 2 = 51720; inactive.
Depletion of Trmt6 resulted in: raw ATP luminescence, replicate 1 = 23823; raw ATP luminescence, replicate 2 = 35443; inactive.
Silencing of CG32544 gave: raw ATP luminescence, replicate 1 = 2.42e5; raw ATP luminescence, replicate 2 = 2.54e5; inactive.
For Cyp6a14 (retired record), the entry reads raw ATP luminescence, replicate 1 = 39167; raw ATP luminescence, replicate 2 = 84443; inactive.
After knock-down of CG4456 + Hsp22 #1, the record shows raw ATP luminescence, replicate 1 = 90740; raw ATP luminescence, replicate 2 = 73123; inactive.
CG4456 + Hsp22 #2 showed raw ATP luminescence, replicate 1 = 39313; raw ATP luminescence, replicate 2 = 41007; inactive.
After knock-down of prd the results were raw ATP luminescence, replicate 1 = 1.04e5; raw ATP luminescence, replicate 2 = 79910; inactive.
Depletion of CG10747 resulted in: raw ATP luminescence, replicate 1 = 51763; raw ATP luminescence, replicate 2 = 54647; inactive.
Lrrk gave raw ATP luminescence, replicate 1 = 61180; raw ATP luminescence, replicate 2 = 64340; inactive.
Against puf the deposit lists raw ATP luminescence, replicate 1 = 29460; raw ATP luminescence, replicate 2 = 28210; inactive.
hd showed raw ATP luminescence, replicate 1 = 65910; raw ATP luminescence, replicate 2 = 72687; inactive.
CG15484 gave raw ATP luminescence, replicate 1 = 66490; raw ATP luminescence, replicate 2 = 62760; inactive.
Silencing of msb1l resulted in: raw ATP luminescence, replicate 1 = 90940; raw ATP luminescence, replicate 2 = 71423; inactive.
After knock-down of gdl-ORF39 + gdl, the record shows raw ATP luminescence, replicate 1 = 40960; raw ATP luminescence, replicate 2 = 37740; inactive.
Against siz #1 the deposit lists raw ATP luminescence, replicate 1 = 67977; raw ATP luminescence, replicate 2 = 63550; inactive.
For siz #2, the values are raw ATP luminescence, replicate 1 = 69783; raw ATP luminescence, replicate 2 = 56097; inactive.
After knock-down of siz #3, the record shows raw ATP luminescence, replicate 1 = 79290; raw ATP luminescence, replicate 2 = 75033; inactive.
Against mthl1, the values are raw ATP luminescence, replicate 1 = 4.03e5; raw ATP luminescence, replicate 2 = 3.00e5; inactive.
For CG6766 the deposit lists raw ATP luminescence, replicate 1 = 72813; raw ATP luminescence, replicate 2 = 67833; inactive.
After knock-down of CG43896 the results were raw ATP luminescence, replicate 1 = 81883; raw ATP luminescence, replicate 2 = 1.63e5; inactive.
After knock-down of CG17477, the screen gave raw ATP luminescence, replicate 1 = 72190; raw ATP luminescence, replicate 2 = 82790; inactive.
Knock-down of Ate1 resulted in: raw ATP luminescence, replicate 1 = 86437; raw ATP luminescence, replicate 2 = 81783; inactive.

A stretch of the results above, as a working copy:
CG2256 → raw ATP luminescence, replicate 1 = 47590; raw ATP luminescence, replicate 2 = 51720; activity call = inactive
Trmt6 → raw ATP luminescence, replicate 1 = 23823; raw ATP luminescence, replicate 2 = 35443; activity call = inactive
CG32544 → raw ATP luminescence, replicate 1 = 2.42e5; raw ATP luminescence, replicate 2 = 2.54e5; activity call = inactive
Cyp6a14 (retired record) → raw ATP luminescence, replicate 1 = 39167; raw ATP luminescence, replicate 2 = 84443; activity call = inactive
CG4456 + Hsp22 #1 → raw ATP luminescence, replicate 1 = 90740; raw ATP luminescence, replicate 2 = 73123; activity call = inactive

Continued.
mahj scored raw ATP luminescence, replicate 1 = 76233; raw ATP luminescence, replicate 2 = 58743; inactive.
Depletion of xmas-1 (retired record) came out at: raw ATP luminescence, replicate 1 = 2.83e5; raw ATP luminescence, replicate 2 = 2.91e5; inactive.
Knock-down of crc gave: raw ATP luminescence, replicate 1 = 56653; raw ATP luminescence, replicate 2 = 52870; inactive.
After knock-down of plh, the screen gave raw ATP luminescence, replicate 1 = 46703; raw ATP luminescence, replicate 2 = 38000; inactive.
Silencing of TTLL3B gave: raw ATP luminescence, replicate 1 = 20803; raw ATP luminescence, replicate 2 = 32450; inactive.
After knock-down of CG13046 the results were raw ATP luminescence, replicate 1 = 41527; raw ATP luminescence, replicate 2 = 26277; inactive.
For CG13310, the entry reads raw ATP luminescence, replicate 1 = 91253; raw ATP luminescence, replicate 2 = 86170; inactive.
Ube4B scored raw ATP luminescence, replicate 1 = 93877; raw ATP luminescence, replicate 2 = 72700; inactive.
CG8043 showed raw ATP luminescence, replicate 1 = 54847; raw ATP luminescence, replicate 2 = 59423; inactive.
Tsp33B scored raw ATP luminescence, replicate 1 = 28193; raw ATP luminescence, replicate 2 = 47923; inactive.
After knock-down of CG8654 the results were raw ATP luminescence, replicate 1 = 57350; raw ATP luminescence, replicate 2 = 56673; inactive.
CG14260 gave raw ATP luminescence, replicate 1 = 55420; raw ATP luminescence, replicate 2 = 54330; inactive.
After knock-down of Obp19d the results were raw ATP luminescence, replicate 1 = 3.56e5; raw ATP luminescence, replicate 2 = 4.63e5; inactive.
KaiR1D scored raw ATP luminescence, replicate 1 = 63310; raw ATP luminescence, replicate 2 = 71600; inactive.
